Reference: PubChem BioAssay AID1259308 (NCATS, 2017)

- Assay: 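Candidate targets for better recombinant protein yield in mammalian cells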 (primary screen)
- Cell system: human HEK293 embryonic kidney cells stably expressing firefly luciferase (HEK-CMV-Luc2-Hygro)
- Knock-down reagent: single siRNA against human genes, 0.8 pmol siRNA per well
- Timing: 72 h
- Measurement: 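Luciferase light (ONE-Glo) measured on one replicate plate set and viability (CellTiter-Glo) on the other, scaled to a negative control siRNA, with robust z-scores and luciferase per cell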
- Direction: total luciferase, z-score and total luciferase, % of control: higher = more reporter protein produced; luciferase per cell, z-score: higher = more reporter output per viable cell; viable cells, % of control: higher = more viable cells
- Active means: 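Active when the median/MAD z-score for overall luciferase is greater than 3; a gene was taken forward for validation with new siRNAs if at least two of its three siRNAs passed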
- Calls: active = raised luciferase; inactive = no rise
This is a random part of about 59,000 reagents tested. Over the whole deposit, about 1,510 (2.6%) are marked active. 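Calls use total luciferase alone and ignore viability, so some active siRNAs may act by altering cell number.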 The numbers tell different reagents against one gene apart.

| gene | reagent | total luciferase, z-score | total luciferase, % of control | luciferase per cell, z-score | viable cells, % of control | Call |
| --- | --- | --- | --- | --- | --- | --- |
| AK2 | 1 | -0.442 | 73.1 | 0.677 | 68.4 | inactive |
| AK2 | 2 | 0.298 | 87.8 | 0.168 | 93.9 | inactive |
| AK2 | 3 | 0.309 | 88 | 1.15 | 72.7 | inactive |
| SPATA6 | 1 | -0.758 | 66.8 | -0.11 | 76.8 | inactive |
| SPATA6 | 2 | 0.362 | 89.1 | 0.861 | 79.3 | inactive |
| SPATA6 | 3 | 0.542 | 92.7 | 3.05 | 46.4 | inactive |
| MYCLP2 | 1 | 2.71 | 136 | 2.71 | 74.4 | inactive |
| MYCLP2 | 2 | 0.794 | 97.7 | 0.462 | 96.6 | inactive |
| MYCLP2 | 3 | 1.62 | 114 | 1.67 | 82.3 | inactive |
| OR9A4 | 1 | 0.6 | 93.8 | 0.124 | 101 | inactive |
| OR9A4 | 2 | 0.886 | 99.5 | 0.382 | 101 | inactive |
| OR9A4 | 3 | 1.68 | 115 | 1.57 | 85.1 | inactive |
| HIPK2 | 1 | -1.03 | 61.3 | -1.54 | 103 | inactive |
| HIPK2 | 2 | -0.805 | 65.9 | -0.63 | 86.9 | inactive |
| HIPK2 | 3 | -0.093 | 80 | -0.564 | 104 | inactive |
| HIPK2 | 4 | -0.0651 | 80.6 | -0.327 | 98.1 | inactive |
| HIPK2 | 5 | 0.57 | 93.2 | 0.503 | 91.2 | inactive |
| HIPK2 | 6 | -1.64 | 49.2 | -1.45 | 80.6 | inactive |
| GTF2F1 | 1 | 0.994 | 102 | 0.182 | 108 | inactive |
| GTF2F1 | 2 | 0.524 | 92.3 | 0.224 | 97.3 | inactive |
| GTF2F1 | 3 | 1.56 | 113 | 1.29 | 89.8 | inactive |

Reformatted: results already given.
gene	reagent	total luciferase, z-score	total luciferase, % of control	luciferase per cell, z-score	viable cells, % of control	Call
HIPK2	1	-1.03	61.3	-1.54	103	inactive
HIPK2	2	-0.805	65.9	-0.63	86.9	inactive
HIPK2	3	-0.093	80	-0.564	104	inactive
HIPK2	4	-0.0651	80.6	-0.327	98.1	inactive
HIPK2	5	0.57	93.2	0.503	91.2	inactive

More entries follow:
| gene | reagent | total luciferase, z-score | total luciferase, % of control | luciferase per cell, z-score | viable cells, % of control | Call |
| --- | --- | --- | --- | --- | --- | --- |
| TNFAIP3 | 1 | -2.02 | 41.8 | -3.27 | 111 | inactive |
| TNFAIP3 | 2 | -0.219 | 77.5 | -0.369 | 95.5 | inactive |
| TNFAIP3 | 3 | -0.861 | 64.8 | -1.18 | 98.8 | inactive |
| ZNF143 | 1 | -0.964 | 62.7 | -0.676 | 83.7 | inactive |
| ZNF143 | 2 | 0.227 | 86.4 | 0.455 | 85.6 | inactive |
| ZNF143 | 3 | -0.539 | 71.2 | -0.317 | 86.4 | inactive |
| NEIL2 | 1 | 0.821 | 98.2 | 1.36 | 76.8 | inactive |
| NEIL2 | 2 | -0.898 | 64 | -0.792 | 88.1 | inactive |
| NEIL2 | 3 | 0.111 | 84.1 | 0.137 | 90.6 | inactive |
| PMS2P1 | 1 | -0.227 | 77.4 | -0.416 | 96.5 | inactive |
| PMS2P1 | 2 | -0.73 | 67.4 | -1.12 | 101 | inactive |
| PMS2P1 | 3 | 0.259 | 87 | -0.734 | 118 | inactive |
| GATA3 | 1 | 1.92 | 120 | 1.77 | 84.3 | inactive |
| GATA3 | 2 | -0.773 | 66.5 | -0.725 | 90 | inactive |
| GATA3 | 3 | -0.16 | 78.7 | -0.833 | 110 | inactive |
| PRCD | 1 | 0.722 | 96.2 | 0.635 | 91 | inactive |
| PRCD | 2 | -1.06 | 60.9 | -1.34 | 96.9 | inactive |
| PRCD | 3 | -0.697 | 68 | 0.382 | 68.8 | inactive |
| LILRA6 | 1 | 1.92 | 120 | 1.5 | 90.6 | inactive |
| LILRA6 | 2 | -0.701 | 67.9 | -0.752 | 92.5 | inactive |
| LILRA6 | 3 | -0.88 | 64.4 | -1.66 | 111 | inactive |
| OR51B6 | 1 | 2.02 | 122 | 1.49 | 92.1 | inactive |
| OR51B6 | 2 | 3.48 | 151 | 3.52 | 66.9 | active |
| OR51B6 | 3 | 0.7 | 95.8 | 0.289 | 99.2 | inactive |
| SLC22A8 | 1 | 0.883 | 99.5 | 0.7 | 92.4 | inactive |
| SLC22A8 | 2 | 1.25 | 107 | 1.08 | 89.8 | inactive |
| SLC22A8 | 3 | 0.75 | 96.8 | 0.0887 | 106 | inactive |
| CPA5 | 1 | -0.226 | 77.4 | -0.259 | 92.6 | inactive |
| CPA5 | 2 | -0.237 | 77.2 | -0.0153 | 86.6 | inactive |
| CPA5 | 3 | -0.547 | 71 | -0.247 | 84.7 | inactive |
| IL33R | 1 | 0.388 | 89.6 | -0.247 | 107 | inactive |
| IL33R | 2 | -0.176 | 78.4 | 0.501 | 76.8 | inactive |
| IL33R | 3 | -0.986 | 62.3 | -0.677 | 83.2 | inactive |
| PYHIN1 | 1 | -1.85 | 45.1 | 0.0631 | 49.6 | inactive |
| PYHIN1 | 2 | -0.573 | 70.5 | -0.358 | 86.6 | inactive |
| PYHIN1 | 3 | -0.167 | 78.6 | -0.621 | 103 | inactive |
